From publication PMC4520684
These are yes or no findings as the source states them, for the method shown. In cells and extracts the contact can be indirect. Some entries that bind do so weakly or less than the wild type. Where a sequence is shown, tags or fusion partners need not be part of it.

Chains of the proteins cited; added tags and fusions are not shown. Residues count along the entry.
UniProt Q13705, residues 19-512: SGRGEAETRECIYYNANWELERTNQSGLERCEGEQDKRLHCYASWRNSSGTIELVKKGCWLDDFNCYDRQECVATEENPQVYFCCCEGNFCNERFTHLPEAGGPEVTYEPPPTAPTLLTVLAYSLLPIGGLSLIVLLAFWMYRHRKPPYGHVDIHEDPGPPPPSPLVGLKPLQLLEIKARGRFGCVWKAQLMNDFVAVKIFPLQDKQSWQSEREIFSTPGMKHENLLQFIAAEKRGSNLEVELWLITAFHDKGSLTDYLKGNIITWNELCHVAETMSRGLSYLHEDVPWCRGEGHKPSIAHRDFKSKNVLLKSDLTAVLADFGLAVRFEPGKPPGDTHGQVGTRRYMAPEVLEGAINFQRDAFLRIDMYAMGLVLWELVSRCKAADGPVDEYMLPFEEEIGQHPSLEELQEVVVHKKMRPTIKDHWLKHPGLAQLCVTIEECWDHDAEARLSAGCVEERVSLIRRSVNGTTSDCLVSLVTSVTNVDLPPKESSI
UniProt P27037, residues 20-513: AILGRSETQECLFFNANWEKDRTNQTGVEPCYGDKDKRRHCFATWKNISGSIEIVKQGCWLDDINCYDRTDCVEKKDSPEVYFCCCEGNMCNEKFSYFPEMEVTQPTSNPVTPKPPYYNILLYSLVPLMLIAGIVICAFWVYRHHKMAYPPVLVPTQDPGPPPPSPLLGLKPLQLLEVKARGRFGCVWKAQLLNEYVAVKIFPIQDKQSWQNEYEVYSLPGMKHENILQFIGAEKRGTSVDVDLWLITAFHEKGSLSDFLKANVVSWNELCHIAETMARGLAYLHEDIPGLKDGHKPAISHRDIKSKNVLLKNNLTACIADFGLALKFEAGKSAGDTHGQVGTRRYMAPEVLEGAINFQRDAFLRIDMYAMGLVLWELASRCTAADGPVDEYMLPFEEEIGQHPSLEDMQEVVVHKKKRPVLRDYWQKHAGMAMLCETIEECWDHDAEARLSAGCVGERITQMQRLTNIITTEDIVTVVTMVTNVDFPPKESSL

Tests used:
Experiment in all cases: co-IP; COS-7 cells co-transfected with FLAG-tagged inhibitory core and V5- or HA-tagged ligand or receptor; whole cell extracts (50 mM Tris-HCl pH 7.4, 50 mM NaCl, 1% Triton X-100, 100 mM octyl glucoside) precipitated with anti-FLAG, anti-V5 or anti-HA agarose and immunoblotted
[1] = target: T1, HA-tagged type I receptor ALK5 (UniProt P36897)
T1 sequence: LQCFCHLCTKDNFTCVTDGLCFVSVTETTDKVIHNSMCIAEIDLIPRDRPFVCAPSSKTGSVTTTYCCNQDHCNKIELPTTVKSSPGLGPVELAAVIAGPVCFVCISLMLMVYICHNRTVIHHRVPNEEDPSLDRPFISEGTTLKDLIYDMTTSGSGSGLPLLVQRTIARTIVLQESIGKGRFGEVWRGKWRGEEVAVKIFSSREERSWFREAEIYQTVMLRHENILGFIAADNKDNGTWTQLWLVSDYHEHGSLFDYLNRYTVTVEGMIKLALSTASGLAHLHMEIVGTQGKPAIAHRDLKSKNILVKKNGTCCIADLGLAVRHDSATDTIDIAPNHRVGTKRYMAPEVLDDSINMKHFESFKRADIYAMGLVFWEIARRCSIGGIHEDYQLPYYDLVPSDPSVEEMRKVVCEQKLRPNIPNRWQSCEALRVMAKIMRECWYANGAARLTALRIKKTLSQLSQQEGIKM

[2] = target: T2, HA-tagged type I receptor ALK4 (UniProt P36896)
T2 sequence: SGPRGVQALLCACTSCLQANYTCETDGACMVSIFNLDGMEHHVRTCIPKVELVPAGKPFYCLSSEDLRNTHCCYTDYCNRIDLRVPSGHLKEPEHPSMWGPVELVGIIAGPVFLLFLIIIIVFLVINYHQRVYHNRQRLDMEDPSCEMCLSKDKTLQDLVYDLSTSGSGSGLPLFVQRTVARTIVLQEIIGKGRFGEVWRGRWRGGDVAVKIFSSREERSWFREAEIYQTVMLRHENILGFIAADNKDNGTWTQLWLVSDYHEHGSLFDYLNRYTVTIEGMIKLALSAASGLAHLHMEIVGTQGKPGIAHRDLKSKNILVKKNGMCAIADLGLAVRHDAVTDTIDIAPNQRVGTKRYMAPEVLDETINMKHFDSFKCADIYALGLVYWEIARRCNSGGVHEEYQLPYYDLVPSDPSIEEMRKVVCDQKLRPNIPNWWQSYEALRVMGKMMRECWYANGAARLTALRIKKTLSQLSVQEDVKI

[3] = target: HA-tagged type II receptor ActRIIB (UniProt Q13705)
[4] = target: T3, V5-tagged C-terminal mature myostatin (ligand) (UniProt O14793)
T3 sequence: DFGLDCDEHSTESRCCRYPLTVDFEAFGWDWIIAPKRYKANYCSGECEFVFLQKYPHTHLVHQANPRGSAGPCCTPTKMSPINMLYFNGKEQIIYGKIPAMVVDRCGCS

[5] = target: T4, HA-tagged C-terminal mature GDF11 (ligand) (UniProt O95390)
T4 sequence: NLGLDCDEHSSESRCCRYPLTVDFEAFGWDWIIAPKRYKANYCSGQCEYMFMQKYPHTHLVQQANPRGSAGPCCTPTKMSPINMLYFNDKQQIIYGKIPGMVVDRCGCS

[6] = target: HA-tagged type II receptor ActRIIA (UniProt P27037)

Measured: binding

CTWRQNTKSSRIEAIKIQILSKLRLETAP (domain or fragment) [FLAG-tagged inhibitory core of the myostatin prodomain]
binds: all assays above
